These are yes or no findings as the source states them, for the method shown. Some results given as binding are weak or reduced against the parent protein; the word gives no strength. Tags and fused reporters may be left off the sequences shown.
Experiments:
Test in all cases: pull-down; 30 µg purified GST-tagged EIF1AX protein on glutathione agarose beads, 500 mM NaCl; 25 µg His-DDX21 purified under non-denaturing or denaturing conditions, 2 h at 4 °C; washed with 500 mM NaCl; western blot; both purified
[1] = target: T1, GST-tagged EIF1AX RBP fragment (Homo sapiens (Human), UniProt P47813)
T1 chain: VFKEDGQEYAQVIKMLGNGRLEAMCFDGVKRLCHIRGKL

[2] = target: T2, GST-tagged EIF1AX IDR2 fragment (Homo sapiens (Human), UniProt P47813)
T2 chain: DIGDDDEDIDDI

[3] = target: T3, GST-tagged EIF1AX IDR1 fragment (Homo sapiens (Human), UniProt P47813)
T3 chain: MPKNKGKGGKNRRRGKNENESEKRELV

B1: His-DDX21 (protein)
chain: MPGKLRSDAGLESDTAMKKGETLRKQTEEKEKKEKPKSDKTEEIAEEEETVFPKAKQVKKKAEPSEVDMNSPKSKKAKKKEEPSQNDISPKTKSLRKKKEPIEKKVVSSKTKKVTKNEEPSEEEIDAPKPKKMKKEKEMNGETREKSPKLKNGFPHPEPDCNPSEAASEESNSEIEQEIPVEQKEGAFSNFPISEETIKLLKGRGVTFLFPIQAKTFHHVYSGKDLIAQARTGTGKTFSFAIPLIEKLHGELQDRKRGRAPQVLVLAPTRELANQVSKDFSDITKKLSVACFYGGTPYGGQFERMRNGIDILVGTPGRIKDHIQNGKLDLTKLKHVVLDEVDQMLDMGFADQVEEILSVAYKKDSEDNPQTLLFSATCPHWVFNVAKKYMKSTYEQVDLIGKKTQKTAITVEHLAIKCHWTQRAAVIGDVIRVYSGHQGRTIIFCETKKEAQELSQNSAIKQDAQSLHGDIPQKQREITLKGFRNGSFGVLVATNVAARGLDIPEVDLVIQSSPPKDVESYIHRSGRTGRAGRTGVCICFYQHKEEYQLVQVEQKAGIKFKRIGVPSATEIIKASSKDAIRLLDSVPPTAISHFKQSAEKLIEEKGAVEALAAALAHISGATSVDQRSLINSNVGFVTMILQCSIEMPNISYAWKELKEQLGEEIDSKVKGMVFLKGKLGVCFDVPTASVTEIQEKWHDSRRWQLSVATEQPELEGPREGYGGFRGQREGSRGFRGQRDGNRRFRGQREGSRGPRGQRSGGGNKSNRSQNKGQKRSFSKAFGQ
B1 was tested, and the binding [1] was “binds”, the binding [2] was “no binding (tested: 25 µg His-DDX21 on 30 µg GST protein)” and the binding [3] was “no binding (tested: 25 µg His-DDX21 on 30 µg GST protein)”.
